The target of experiment [1] is hCMV glycoprotein B (gB; HEK293T transfectant) (hCMV) (UniProt P06473). In words: staining of transfected HEK293T.
The target in experiment [2] is T1, hCMV gM + gN (HEK293T co-transfectant) (hCMV) (UniProt P16733).
T1 sequence 1: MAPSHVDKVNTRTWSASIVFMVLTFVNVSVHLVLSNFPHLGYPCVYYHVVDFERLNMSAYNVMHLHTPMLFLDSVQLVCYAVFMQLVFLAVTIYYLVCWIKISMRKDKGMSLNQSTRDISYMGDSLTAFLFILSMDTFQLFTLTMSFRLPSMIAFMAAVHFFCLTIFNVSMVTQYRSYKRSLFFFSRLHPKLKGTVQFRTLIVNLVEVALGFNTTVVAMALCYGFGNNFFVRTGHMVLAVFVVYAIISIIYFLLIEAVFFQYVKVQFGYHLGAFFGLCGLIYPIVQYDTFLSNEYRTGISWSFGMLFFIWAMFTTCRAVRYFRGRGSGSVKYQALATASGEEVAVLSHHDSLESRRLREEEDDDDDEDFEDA
T1 sequence 2: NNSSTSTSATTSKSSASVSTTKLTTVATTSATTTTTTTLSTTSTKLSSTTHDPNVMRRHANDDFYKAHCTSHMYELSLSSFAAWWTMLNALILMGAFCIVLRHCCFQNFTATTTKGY
In words: staining of transfected HEK293T.

Chains of the proteins cited; added tags and fusions are not shown. Lines headed by an entry give the natural chain unless they say otherwise; changes in a name come on top. Residues count along the entry.
UniProt P06473: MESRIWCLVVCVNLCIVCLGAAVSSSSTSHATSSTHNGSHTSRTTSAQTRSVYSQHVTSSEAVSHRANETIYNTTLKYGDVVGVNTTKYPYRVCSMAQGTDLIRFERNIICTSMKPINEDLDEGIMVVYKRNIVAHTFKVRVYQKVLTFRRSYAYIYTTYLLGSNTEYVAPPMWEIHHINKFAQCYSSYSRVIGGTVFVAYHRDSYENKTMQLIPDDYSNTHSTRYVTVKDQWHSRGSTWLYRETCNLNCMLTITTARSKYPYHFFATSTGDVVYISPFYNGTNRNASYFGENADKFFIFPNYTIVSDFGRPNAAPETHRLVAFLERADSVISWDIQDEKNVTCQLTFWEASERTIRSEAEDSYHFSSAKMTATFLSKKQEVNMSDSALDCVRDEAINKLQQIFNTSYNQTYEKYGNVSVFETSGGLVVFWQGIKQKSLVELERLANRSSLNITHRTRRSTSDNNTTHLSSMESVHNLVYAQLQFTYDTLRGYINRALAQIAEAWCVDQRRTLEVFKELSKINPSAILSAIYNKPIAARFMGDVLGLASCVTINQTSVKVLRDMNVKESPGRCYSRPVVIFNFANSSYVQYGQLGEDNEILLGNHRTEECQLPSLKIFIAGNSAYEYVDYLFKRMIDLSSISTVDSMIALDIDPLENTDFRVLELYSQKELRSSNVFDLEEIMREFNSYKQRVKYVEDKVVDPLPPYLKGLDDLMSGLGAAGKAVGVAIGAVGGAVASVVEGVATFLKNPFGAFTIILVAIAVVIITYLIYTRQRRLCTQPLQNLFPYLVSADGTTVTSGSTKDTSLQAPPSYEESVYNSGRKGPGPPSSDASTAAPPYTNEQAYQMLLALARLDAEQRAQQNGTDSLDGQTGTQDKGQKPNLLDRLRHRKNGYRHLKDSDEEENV
hCMV glycoprotein B (gB; HEK293T transfectant): residues 32-906 of P06473
soluble gB ectodomain expressed in a mammalian cell line: residues 32-750 of P06473

For experiment [3], the target named is soluble gB ectodomain expressed in a mammalian cell line (hCMV) (UniProt P06473). In words: ELISA, soluble gB ectodomain.

The values that follow come from US20170296650A1.

Changes are numbered by the printed parent chain. No constants are given. Whether binding was seen depends on the method and setting. Some binding calls cover weakened binding; strength is not graded here.

B1: 4H9 (antibody, V domains shown)
VH: AVQLVESGGGLVRPGGSLRLSCAASGFTFSSHEMHWVRQAPGKGLEWLSYIDFTGSIIYYADSVRGRFTISRDNTKKSLFLQMNSLRDEDTALYYCARDGGRWGTSWYYFDYWGQGVLVTVSS
VL: QSVLTQPPSVSGAPGQRVTITCTGSSSNFGAGYDGHWYQQLPGTAPKLLIYGSNRPSGVPDRFSGSKSGTSVSLAITGLQADDEADYYCQSYDSSLSAWVFGGGTKLTVL
B1: the binding result in experiment [1] is “binds”.

B2: 10C6 (antibody, V domains shown)
VH: AVQLVESGGGLAQPGRSLRLSCKVSGFSFSNFEMNWVRQAPGKGLEWIAYIDFTGSTIYYSDSVKGRFTISRDTARNSLYLQMNKLRVEDTAVYYCVRDAGRWGTSWYYFDYWGQGTLVTVSS
VL: QSVLTQPPSVSGAPGQRVTISCTGLSSNIGAGYDIHWYQQIPGKAPKLLIYGNNNRPSGVPDRFSGSKSGTSVSLAITGLQAEDEADYYCQSYDSSLNGWVFGGGTRLTVL
On to B2, for which, in experiment [1], the binding entry was “binds”.

B3: 2B11 (antibody, V domains shown)
VH: AVRLVESGGGLAQPGRSLRLSCQVSGFTFGSYEMNWVRQAPGKGLEWIAYIDFTGSTIYYADSVKGRFTISRNTARNSLYLQMNSLRVEDTAVYYCVRDAGRWGTSWYYFDYWGQGTRVTVSP
VL: B2 VL with L25I, I50V, A82V, S95N
Turning to B3, the binding entry in experiment [1] is listed as “binds”.

B4: 5F1 (antibody, V domains shown)
VH: B2 VH with S28T, N31S, F32Y, S61A
VL: B2 VL
Consider B4, for which the binding result in experiment [1] is given as “binds”.

B5: 6B4 (antibody, V domains shown)
VH: QVQLVESGGGVVQPGRSLRLSCAASGFRFNEFNMHWVRQAPGKGLEWVAVISIDGRHKYNADSVEGRFTISRDNSRNTLYLQMNSLRVEDTALYYCVTDGKAVDGFSGILEFWGQGTPVTVST
VL: EIVLTQSPATLSLSPGERATLSCWASQSVGGYLAWYQQKPGQAPRLLIYDASIRATGIPARFSGSGSGTHFTLTINSLEPEDFAVYYCQQRNNWPPLTFGGGTKVEIK
With B5, in experiment [1], the binding entry was “binds”.

B6: 6L3 (antibody, V domains shown)
VH: EVRLEESGGGLVQPGGSLRLSCAASGFTVSTTYMAWVRQAPGKGLEWVSLIHTGGIFGVGGTSYADSVKGRFTISRDTSKNTVSLQMSSLRVEDTAIYFCAREHRGTIDAFDAWGQGTVVIVSS
VL: DIHMTQSPSSLSASVGDRVTITCRASQNIRNYLNWYQHKPGKAPKLLIYTTSRLQSGVPSRFSGSGSGTDFTLTVNSLQPEDFASYYCQQSYDGWTFGQGTKVEMK
Consider B6, for which the binding entry in experiment [2] is recorded as “binds”.

B7: 7H3 (antibody, V domains shown)
VH: QVQLVQSGAEVKNPGASVKVSCKASGYTFTDYYIHWVRQAPGQGLEWMGWFNPNSGGTNFVQNFQGRVTMTRDTSISTAYMELSRLRSDDTAMYYCAKDSAKTASAYYGLNFFYYGMDVWGQGTTVTVSS
VL: QSVLSQPPSASGTPGQRVTISCSGSSSNIGKNYVYWYQQVPGTAPKLLMFKNNQRPSGVPDRFSGSKSGTSASLAISGLRSEDEADYYCSAWDGSLSRPLFGGGTKVTVL
Regarding B7, the binding result in experiment [3] is “binds”.
